Assay results taken from PubChem BioAssay (Tox21).
Values joined by “and” are separate entries in the source; they are usually repeats but may differ in a detail not shown here. Equal entries are not always repeated. Inconclusive means that the source gave no clear call. Such entries were picked first, then a sample of the others. A potency beside an inconclusive call is a rough fit, not a confirmed value. More than one record can exist for a structure, and the calls need not agree. Active and inactive are the calls of the source. Calls come from the whole dose curve; as a rule, active = well fitted inhibition curve with a large enough effect in the repeat runs; inconclusive = weak or mixed curves; inactive = no such curve, though single readings can be large or run the other way.

By UniProt entry, the sequences of proteins in these tests, tags left out.
UniProt P11712, whole entry, looked up: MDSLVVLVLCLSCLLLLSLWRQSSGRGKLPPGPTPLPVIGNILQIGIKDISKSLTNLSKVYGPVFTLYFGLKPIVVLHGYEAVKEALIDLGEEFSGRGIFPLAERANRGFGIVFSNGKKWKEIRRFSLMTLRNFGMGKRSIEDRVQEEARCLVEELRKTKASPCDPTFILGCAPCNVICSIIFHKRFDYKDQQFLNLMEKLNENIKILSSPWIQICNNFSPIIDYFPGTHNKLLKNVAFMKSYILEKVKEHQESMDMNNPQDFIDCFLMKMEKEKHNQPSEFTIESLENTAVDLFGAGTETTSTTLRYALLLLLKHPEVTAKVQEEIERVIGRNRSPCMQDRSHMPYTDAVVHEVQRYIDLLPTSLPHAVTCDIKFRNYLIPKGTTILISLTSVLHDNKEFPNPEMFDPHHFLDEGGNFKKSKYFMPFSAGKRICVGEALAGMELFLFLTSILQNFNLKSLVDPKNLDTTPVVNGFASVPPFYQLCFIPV

Target: Cytochrome P450 2C9 (Homo sapiens) (UniProt P11712)
Assay: Cytochrome P450 Family 2 Subfamily C Member 9 (CYP2C9) small molecule antagonists: luciferase reporter qHTS assay (AID 1671198); note: nearly all actives have a fitted effect of over 50% in size
Settings: P450-Glo CYP2C9 enzyme assay, luciferin luminescence; series mostly up to 115 µM
Summary of the method: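 Enzyme-substrate mix preincubated with compound 10 min at room temperature; reaction started with NADPH regeneration solution, 1 h 37C. Luminescent luciferin product read after 20 min detection reagent.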
Potency is the fitted concentration of half-maximal effect.

| SMILES | Potency |
| --- | --- |
| CCCCC(CC)COC(=O)c1ccc(O)cc1 (centres undefined) | active: 31.6 µM and active: 35.6 µM |
| Cc1cc2nc3c(=O)[nH]c(=O)nc-3n(C[C@H](O)[C@H](O)[C@H](O)CO)c2cc1C | inconclusive: 62.6 µM [inhibitor, partial curve] and inconclusive: 58.7 µM [inhibitor, partial curve] |
| CCCCCCCCCCCCN(CCO)CCO | active: 63 µM |
| CCCCCCC(C)Nc1ccc(Nc2ccccc2)cc1 (centres undefined) | active: 7.1 µM |
| O=C1CN(/N=C/c2ccc([N+](=O)[O-])o2)C(=O)N1 | inconclusive: 89.4 µM [inhibitor, single point] |
| COc1ccc(N)c(C)c1 | active: 35.4 µM and active: 63.3 µM |
| NCc1cccc(C2CCN(C(=O)c3ccc(C#Cc4ccccc4F)o3)CC2)c1 | active: 0.071 µM |
| O=C1NC(=O)c2cc([N+](=O)[O-])ccc21 | inconclusive: 71.6 µM [inhibitor, partial curve] |
| c1ccc2[nH]ccc2c1 | inconclusive: 39.9 µM [inhibitor, partial curve, poor fit] |
